# According to article PMC5438914 (SLAS discovery, 2016):
# Tested on: human embryonic kidney 293 cells (HEK-293)
# Assay: MTT cytotoxicity test
# Settings: HEK-293, MTT, 24 h
smiles,measurement,value
"CN[C@@H]1C[C@H]2O[C@@](C)([C@@H]1OC)n1c3ccccc3c3c4c(c5c6ccccc6n2c5c31)C(=O)NC4 [staurosporine, reference compound]",IC50 (or CC50) for inhibition of cell growth,3 ng/mL
